Results from the supplement of paper PMC8426693.
Some of the results follow.

Assays:
Experiment in all cases: NMR binding call after quantification (hit when 2 of 3 NMR criteria are met) (binary (1 = binding, 0 = not binding)); higher = binding
Conditions in all cases: RNA concentration 10 µM; fragment concentration 200 µM; 293 K
[1] = test system: SARS-CoV-2 3'-UTR RNA
[2] = test system: SARS-CoV-2 3_SL1 RNA
[3] = test system: SARS-CoV-2 3_SL1+2 RNA
[4] = test system: SARS-CoV-2 3_SL2 RNA
[5] = test system: SARS-CoV-2 3_SL3base RNA
[6] = test system: SARS-CoV-2 3_s2m RNA
[7] = test system: SARS-CoV-2 5'-UTR RNA
[8] = test system: SARS-CoV-2 5_SL1 RNA
[9] = test system: SARS-CoV-2 5_SL1234 RNA
[10] = test system: SARS-CoV-2 5_SL2+3 RNA
[11] = test system: SARS-CoV-2 5_SL4 RNA
[12] = test system: SARS-CoV-2 5_SL5 RNA
[13] = test system: SARS-CoV-2 5_SL5a RNA
[14] = test system: SARS-CoV-2 5_SL5b+c RNA
[15] = test system: SARS-CoV-2 5_SL5stem RNA
[16] = test system: SARS-CoV-2 5_SL6 RNA

SMILES | NMR binding call [1] | NMR binding call [2] | NMR binding call [3] | NMR binding call [4] | NMR binding call [5] | NMR binding call [6] | NMR binding call [7] | NMR binding call [8] | NMR binding call [9] | NMR binding call [10] | NMR binding call [11] | NMR binding call [12] | NMR binding call [13] | NMR binding call [14] | NMR binding call [15] | NMR binding call [16]
CC1CN(C(=O)Cn2cccn2)CCO1 (stereo not drawn) | 0 | 0 | 0 | 0 | 0 | 0 | 0 | 0 | 0 | 0 | 0 | 0 | 0 | 0 | 0 | 0
O=C(COc1ccc(F)cc1)N1CCCC1 | 0 | 0 | 0 | 0 | 0 | 0 | 0 | 0 | 0 | 0 | 0 | 0 | 0 | 0 | 0 | 0
CNC1(CO)CCOCC1 | 0 | 0 | 0 | 0 | 0 | 0 | 0 | 0 | 0 | 0 | 0 | 0 | 0 | 0 | 0 | 0
CC(NS(C)(=O)=O)c1ccccc1Cl (stereo not drawn) | 0 | 0 | 0 | 0 | 0 | 0 | 0 | 0 | 0 | 0 | 0 | 0 | 0 | 0 | 0 | 0
O=C(O)c1cccc(NC(=O)c2ccno2)c1 | 0 | 0 | 0 | 0 | 0 | 0 | 0 | 0 | 0 | 0 | 0 | 0 | 0 | 0 | 0 | 0
CN(CCO)S(=O)(=O)c1ccc(N)cc1 | 0 | 0 | 0 | 0 | 0 | 0 | 0 | 0 | 0 | 0 | 0 | 0 | 0 | 0 | 0 | 0
O=C(Nc1ccc2[nH]c(=O)[nH]c2c1)c1ccco1 | 1 | 0 | 0 | 0 | 1 | 0 | 1 | 0 | 0 | 0 | 0 | 0 | 0 | 0 | 0 | 0
CCc1ccc(OCC(=O)N2CCCCC2)cc1 | 0 | 0 | 0 | 0 | 0 | 0 | 0 | 0 | 0 | 0 | 0 | 0 | 0 | 0 | 0 | 0
NC(=O)N1CCN(C(=O)c2ccco2)CC1 | 0 | 0 | 0 | 0 | 0 | 0 | 0 | 0 | 0 | 0 | 0 | 0 | 0 | 0 | 0 | 0
CC(O)COc1cccc(F)c1 (stereo not drawn) | 0 | 0 | 0 | 0 | 0 | 0 | 0 | 0 | 0 | 0 | 0 | 0 | 0 | 0 | 0 | 0
CC(C)(CO)NC(=O)c1cccc(Cl)c1 | 0 | 0 | 0 | 0 | 0 | 0 | 0 | 0 | 0 | 0 | 0 | 0 | 0 | 0 | 0 | 0
Cc1cc(C(=O)NCc2cccs2)no1 | 0 | 0 | 0 | 0 | 0 | 0 | 0 | 0 | 0 | 0 | 0 | 0 | 0 | 0 | 0 | 0
Cn1ccc(C(=O)Nc2cccc(C(=O)O)c2)n1 | 0 | 0 | 0 | 0 | 0 | 0 | 0 | 0 | 0 | 0 | 0 | 0 | 0 | 0 | 0 | 0
CCOC(=O)C1CCN(c2cnccn2)CC1 | 0 | 0 | 0 | 0 | 0 | 0 | 0 | 0 | 0 | 0 | 0 | 0 | 0 | 0 | 0 | 0
CNC1CCN(c2ccccc2F)C1=O.Cl (stereo not drawn) | 0 | 0 | 0 | 0 | 0 | 0 | 0 | 0 | 0 | 0 | 0 | 0 | 0 | 0 | 0 | 0
O=C(Cc1ccc(Cl)cc1)Nc1ncccn1 | 0 | 0 | 0 | 0 | 0 | 0 | 0 | 0 | 0 | 0 | 0 | 0 | 0 | 0 | 0 | 0
CNc1ncccn1 | 0 | 0 | 0 | 0 | 0 | 0 | 0 | 0 | 0 | 0 | 0 | 0 | 0 | 0 | 0 | 0
O=C(Nc1nncs1)c1ccccc1F | 0 | 0 | 0 | 0 | 0 | 0 | 0 | 0 | 0 | 0 | 0 | 0 | 0 | 0 | 0 | 0
CC(=O)N1CCCC(O)(C(=O)O)C1 (stereo not drawn) | 0 | 0 | 0 | 0 | 0 | 0 | 0 | 0 | 0 | 0 | 0 | 0 | 0 | 0 | 0 | 0
Cc1nnc(N2CCCCC2)s1 | 0 | 0 | 0 | 0 | 0 | 0 | 0 | 0 | 0 | 0 | 0 | 0 | 0 | 0 | 0 | 0
Nc1ccc(S(=O)(=O)Nc2ccccn2)cc1 | 0 | 0 | 0 | 0 | 0 | 0 | 0 | 0 | 0 | 0 | 0 | 0 | 0 | 0 | 0 | 0
CNS(=O)(=O)CC1CCCCC1 | 0 | 0 | 0 | 0 | 0 | 0 | 0 | 0 | 0 | 0 | 0 | 0 | 0 | 0 | 0 | 0
Cc1n[nH]c(C)c1-c1ccccc1N | 0 | 0 | 0 | 0 | 0 | 0 | 0 | 0 | 0 | 0 | 0 | 0 | 0 | 0 | 0 | 0
CCn1ccc(CNC)n1 | 0 | 0 | 0 | 0 | 0 | 0 | 0 | 0 | 0 | 0 | 0 | 0 | 0 | 0 | 0 | 0

SMILES | NMR binding call [1] | NMR binding call [2] | NMR binding call [3] | NMR binding call [4] | NMR binding call [5] | NMR binding call [6] | NMR binding call [7] | NMR binding call [8] | NMR binding call [9] | NMR binding call [10] | NMR binding call [11] | NMR binding call [12] | NMR binding call [13] | NMR binding call [14] | NMR binding call [15] | NMR binding call [16]
CC(=O)NCCc1ccc(S(N)(=O)=O)cc1 | 0 | 0 | 0 | 0 | 0 | 0 | 0 | 0 | 0 | 0 | 0 | 0 | 0 | 0 | 0 | 0
Cc1cc(NC(=O)CCC2CCCCC2)no1 | 0 | 0 | 0 | 0 | 0 | 0 | 0 | 0 | 0 | 0 | 0 | 0 | 0 | 0 | 0 | 0
COc1ccc(N2CC(C(N)=O)CC2=O)cc1 (stereo not drawn) | 0 | 0 | 0 | 0 | 0 | 0 | 0 | 0 | 0 | 0 | 0 | 0 | 0 | 0 | 0 | 0
CN1CCCC1CO (stereo not drawn) | 0 | 0 | 0 | 0 | 0 | 0 | 0 | 0 | 0 | 0 | 0 | 0 | 0 | 0 | 0 | 0
NC(=O)c1cnc(C(F)(F)F)nc1 | 0 | 0 | 0 | 0 | 0 | 0 | 0 | 0 | 0 | 0 | 0 | 0 | 0 | 0 | 0 | 0
CC(C)N(C)S(=O)(=O)N1CCNC(=O)C1 | 0 | 0 | 0 | 0 | 0 | 0 | 0 | 0 | 0 | 0 | 0 | 0 | 0 | 0 | 0 | 0
CC(C)C(=O)Nc1nnn(C)n1 | 0 | 0 | 0 | 0 | 0 | 0 | 0 | 0 | 0 | 0 | 0 | 0 | 0 | 0 | 0 | 0
CC(N)c1ccc(N2CCOCC2)cc1 (stereo not drawn) | 0 | 0 | 0 | 0 | 0 | 0 | 0 | 0 | 0 | 0 | 0 | 0 | 0 | 0 | 0 | 0
CS(=O)(=O)N1CCCC1CN (stereo not drawn) | 0 | 0 | 0 | 0 | 0 | 0 | 0 | 0 | 0 | 0 | 0 | 0 | 0 | 0 | 0 | 0
COC(=O)Nc1cc(C)n(-c2ccccc2)n1 | 0 | 0 | 0 | 0 | 0 | 0 | 0 | 0 | 0 | 0 | 0 | 0 | 0 | 0 | 0 | 0
COc1ccc(NC(=O)CN)cc1 | 0 | 0 | 0 | 0 | 0 | 0 | 1 | 0 | 0 | 0 | 0 | 0 | 0 | 0 | 0 | 0
CNc1nccnc1C#N | 0 | 0 | 0 | 0 | 0 | 0 | 0 | 0 | 0 | 0 | 0 | 0 | 0 | 0 | 0 | 0
COCC(=O)NCc1ccc(C)cc1 | 0 | 0 | 0 | 0 | 0 | 0 | 0 | 0 | 0 | 0 | 0 | 0 | 0 | 0 | 0 | 0
CC(=O)NC(C)c1nnc2ccccn12 (stereo not drawn) | 0 | 0 | 0 | 0 | 0 | 0 | 0 | 0 | 0 | 0 | 0 | 0 | 0 | 0 | 0 | 0
CCC(CC)C(=O)Nc1ccccc1O | 0 | 0 | 0 | 0 | 0 | 0 | 0 | 0 | 0 | 0 | 0 | 0 | 0 | 0 | 0 | 0
CNC(=O)C1CCCc2sc(C)nc21 (stereo not drawn) | 0 | 0 | 0 | 0 | 0 | 0 | 0 | 0 | 0 | 0 | 0 | 0 | 0 | 0 | 0 | 0
Cc1c(Cl)cccc1NC(=O)C1CCCO1 (stereo not drawn) | 0 | 0 | 0 | 0 | 0 | 0 | 0 | 0 | 0 | 0 | 0 | 0 | 0 | 0 | 0 | 0
CC1CC1C(=O)NCCc1ccc(Cl)cc1 (stereo not drawn) | 0 | 0 | 0 | 0 | 0 | 0 | 0 | 0 | 0 | 0 | 0 | 0 | 0 | 0 | 0 | 0
c1cc(CN2CCNCC2)no1 | 0 | 0 | 0 | 0 | 0 | 0 | 0 | 0 | 0 | 0 | 0 | 0 | 0 | 0 | 0 | 0
CCC(CO)NC(=O)Nc1ccc(Cl)cc1 (stereo not drawn) | 0 | 0 | 0 | 0 | 0 | 0 | 0 | 0 | 0 | 0 | 0 | 0 | 0 | 0 | 0 | 0
CC1CN(C(=O)c2cnsn2)C(C)CO1 (stereo not drawn) | 0 | 0 | 0 | 0 | 0 | 0 | 0 | 0 | 0 | 0 | 0 | 0 | 0 | 0 | 0 | 0
CS(=O)(=O)Cc1nc2ccccc2[nH]1 | 0 | 0 | 0 | 0 | 0 | 0 | 0 | 0 | 0 | 0 | 0 | 0 | 0 | 0 | 0 | 0
CC1CCN(C(=O)CCCc2ccccc2)CC1 | 0 | 0 | 0 | 0 | 0 | 0 | 0 | 0 | 0 | 0 | 0 | 0 | 0 | 0 | 0 | 0
CS(=O)(=O)N1CCCC(C(=O)O)C1 (stereo not drawn) | 0 | 0 | 0 | 0 | 0 | 0 | 0 | 0 | 0 | 0 | 0 | 0 | 0 | 0 | 0 | 0

Part of the list above, in markdown.

| SMILES | NMR binding call [1] | NMR binding call [2] | NMR binding call [3] | NMR binding call [4] | NMR binding call [5] | NMR binding call [6] | NMR binding call [7] | NMR binding call [8] | NMR binding call [9] | NMR binding call [10] | NMR binding call [11] | NMR binding call [12] | NMR binding call [13] | NMR binding call [14] | NMR binding call [15] | NMR binding call [16] |
| --- | --- | --- | --- | --- | --- | --- | --- | --- | --- | --- | --- | --- | --- | --- | --- | --- |
| Cc1cc(NC(=O)CCC2CCCCC2)no1 | 0 | 0 | 0 | 0 | 0 | 0 | 0 | 0 | 0 | 0 | 0 | 0 | 0 | 0 | 0 | 0 |
| CC(C)N(C)S(=O)(=O)N1CCNC(=O)C1 | 0 | 0 | 0 | 0 | 0 | 0 | 0 | 0 | 0 | 0 | 0 | 0 | 0 | 0 | 0 | 0 |
| CC1CC1C(=O)NCCc1ccc(Cl)cc1 (stereo not drawn) | 0 | 0 | 0 | 0 | 0 | 0 | 0 | 0 | 0 | 0 | 0 | 0 | 0 | 0 | 0 | 0 |
